Reference: PubChem BioAssay AID504774 (Drosophila RNAi Screening Center, 2011)

- Test: 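Knock-downs that shift viability of MMS-exposed cells relative to untreated ones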 (primary screen)
- Cells: Drosophila Kc167 cells
- Reagents: long dsRNA against Drosophila genes, about 0.25 µg dsRNA per well
- Time to read-out: about 6 days: 3 days knock-down, then 3 days with or without MMS
- Challenge: methyl methanesulphonate 0.004% (w/v) for 3 days after knock-down
- Measured: 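ATP-dependent luminescence as a measure of live cells in MMS-exposed wells, quantile normalised within each plate, with replicate values also given as a mean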
- Reading the numbers: mean viability with MMS and viability with MMS: higher = more surviving cells after MMS
In all, the deposit lists about 23,000 reagents; shown is an unselected part of those that have a named target and a result. 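Values are quantile-normalised luminescence on an arbitrary scale; higher means more cells surviving MMS.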 The numbers tell different reagents against one gene apart. Further read-outs or replicates are left out here. No sequences are given here.

After knock-down of RpS3A, the record shows mean viability with MMS 2.89e6; viability with MMS, replicate 1 = 3.67e6.
CG13807 scored mean viability with MMS 3.57e6; viability with MMS, replicate 1 = 4.03e6.
Silencing of CG8414 came out at: mean viability with MMS 3.45e6; viability with MMS, replicate 1 = 3.83e6.
tyf showed mean viability with MMS 3.49e6; viability with MMS, replicate 1 = 3.96e6.
After knock-down of CG14075 the results were mean viability with MMS 3.31e6; viability with MMS, replicate 1 = 3.81e6.
After knock-down of jus #1, the record shows mean viability with MMS 3.13e6; viability with MMS, replicate 1 = 3.56e6.
After knock-down of jus #2, the record shows mean viability with MMS 3.59e6; viability with MMS, replicate 1 = 4.00e6.
With knock-down of jus #3, the screen gave mean viability with MMS 3.48e6; viability with MMS, replicate 1 = 4.07e6.
Depletion of lncRNA:CR31526 gave: mean viability with MMS 3.68e6; viability with MMS, replicate 1 = 4.11e6.
For Pep the deposit lists mean viability with MMS 3.48e6; viability with MMS, replicate 1 = 3.96e6.
CG15390 scored mean viability with MMS 3.53e6; viability with MMS, replicate 1 = 4.03e6.
Against CG13051, the values are mean viability with MMS 3.51e6; viability with MMS, replicate 1 = 3.96e6.
After knock-down of CG34205 #1, the record shows mean viability with MMS 3.58e6; viability with MMS, replicate 1 = 4.08e6.
With knock-down of CG34205 #2, the record shows mean viability with MMS 3.11e6; viability with MMS, replicate 1 = 3.67e6.
Depletion of CG14323 gave: mean viability with MMS 3.28e6; viability with MMS, replicate 1 = 3.80e6.
Knock-down of Acer resulted in: mean viability with MMS 3.64e6; viability with MMS, replicate 1 = 4.32e6.
CG42399 #1 gave mean viability with MMS 3.48e6; viability with MMS, replicate 1 = 3.90e6.
After knock-down of CG42399 #2, the screen gave mean viability with MMS 3.48e6; viability with MMS, replicate 1 = 3.93e6.
After knock-down of CG14053, the screen gave mean viability with MMS 3.49e6; viability with MMS, replicate 1 = 4.06e6.
Against lmd, the entry reads mean viability with MMS 3.53e6; viability with MMS, replicate 1 = 4.02e6.
Depletion of CG7879 resulted in: mean viability with MMS 3.53e6; viability with MMS, replicate 1 = 3.82e6.
CG11267 showed mean viability with MMS 3.64e6; viability with MMS, replicate 1 = 4.05e6.
Depletion of CG33144 #1 gave: mean viability with MMS 3.49e6; viability with MMS, replicate 1 = 3.94e6.
CG33144 #2 scored mean viability with MMS 3.44e6; viability with MMS, replicate 1 = 3.89e6.
Knock-down of GABA-B-R2 gave: mean viability with MMS 3.69e6; viability with MMS, replicate 1 = 4.14e6.
Silencing of CG3500 gave: mean viability with MMS 3.59e6; viability with MMS, replicate 1 = 4.05e6.
CG13198 gave mean viability with MMS 3.49e6; viability with MMS, replicate 1 = 3.94e6.
l(2)efl gave mean viability with MMS 3.63e6; viability with MMS, replicate 1 = 3.86e6.
Cht10 #1 scored mean viability with MMS 3.63e6; viability with MMS, replicate 1 = 4.13e6.
Knock-down of Cht10 #2 gave: mean viability with MMS 3.45e6; viability with MMS, replicate 1 = 3.82e6.
Cht10 #3 showed mean viability with MMS 3.56e6; viability with MMS, replicate 1 = 4.04e6.
cnc #1 scored mean viability with MMS 3.64e6; viability with MMS, replicate 1 = 4.13e6.
Knock-down of cnc #2 gave: mean viability with MMS 3.34e6; viability with MMS, replicate 1 = 3.84e6.
cnc #3 scored mean viability with MMS 3.46e6; viability with MMS, replicate 1 = 3.90e6.
Depletion of cnc #4 gave: mean viability with MMS 3.44e6; viability with MMS, replicate 1 = 3.77e6.

5 of these entries in another layout.
gene knocked down,reagent,mean viability with MMS,"viability with MMS, replicate 1"
CG33144,1,3.49e6,3.94e6
CG33144,2,3.44e6,3.89e6
GABA-B-R2,1,3.69e6,4.14e6
CG3500,1,3.59e6,4.05e6
CG13198,1,3.49e6,3.94e6
